Among the data in article PMC8983672 are binding values, retold here.

Sequences of proteins named here, by UniProt entry; tags and fusion partners are left off.
UniProt P47936: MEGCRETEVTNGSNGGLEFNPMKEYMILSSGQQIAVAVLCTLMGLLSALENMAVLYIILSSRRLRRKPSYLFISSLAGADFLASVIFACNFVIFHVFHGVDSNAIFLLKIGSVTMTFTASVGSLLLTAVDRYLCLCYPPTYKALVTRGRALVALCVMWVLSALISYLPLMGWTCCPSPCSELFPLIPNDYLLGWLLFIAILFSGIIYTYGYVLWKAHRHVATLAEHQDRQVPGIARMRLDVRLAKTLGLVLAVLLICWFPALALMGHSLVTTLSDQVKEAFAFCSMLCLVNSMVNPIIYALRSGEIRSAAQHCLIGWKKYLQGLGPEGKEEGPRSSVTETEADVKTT
UniProt P52332: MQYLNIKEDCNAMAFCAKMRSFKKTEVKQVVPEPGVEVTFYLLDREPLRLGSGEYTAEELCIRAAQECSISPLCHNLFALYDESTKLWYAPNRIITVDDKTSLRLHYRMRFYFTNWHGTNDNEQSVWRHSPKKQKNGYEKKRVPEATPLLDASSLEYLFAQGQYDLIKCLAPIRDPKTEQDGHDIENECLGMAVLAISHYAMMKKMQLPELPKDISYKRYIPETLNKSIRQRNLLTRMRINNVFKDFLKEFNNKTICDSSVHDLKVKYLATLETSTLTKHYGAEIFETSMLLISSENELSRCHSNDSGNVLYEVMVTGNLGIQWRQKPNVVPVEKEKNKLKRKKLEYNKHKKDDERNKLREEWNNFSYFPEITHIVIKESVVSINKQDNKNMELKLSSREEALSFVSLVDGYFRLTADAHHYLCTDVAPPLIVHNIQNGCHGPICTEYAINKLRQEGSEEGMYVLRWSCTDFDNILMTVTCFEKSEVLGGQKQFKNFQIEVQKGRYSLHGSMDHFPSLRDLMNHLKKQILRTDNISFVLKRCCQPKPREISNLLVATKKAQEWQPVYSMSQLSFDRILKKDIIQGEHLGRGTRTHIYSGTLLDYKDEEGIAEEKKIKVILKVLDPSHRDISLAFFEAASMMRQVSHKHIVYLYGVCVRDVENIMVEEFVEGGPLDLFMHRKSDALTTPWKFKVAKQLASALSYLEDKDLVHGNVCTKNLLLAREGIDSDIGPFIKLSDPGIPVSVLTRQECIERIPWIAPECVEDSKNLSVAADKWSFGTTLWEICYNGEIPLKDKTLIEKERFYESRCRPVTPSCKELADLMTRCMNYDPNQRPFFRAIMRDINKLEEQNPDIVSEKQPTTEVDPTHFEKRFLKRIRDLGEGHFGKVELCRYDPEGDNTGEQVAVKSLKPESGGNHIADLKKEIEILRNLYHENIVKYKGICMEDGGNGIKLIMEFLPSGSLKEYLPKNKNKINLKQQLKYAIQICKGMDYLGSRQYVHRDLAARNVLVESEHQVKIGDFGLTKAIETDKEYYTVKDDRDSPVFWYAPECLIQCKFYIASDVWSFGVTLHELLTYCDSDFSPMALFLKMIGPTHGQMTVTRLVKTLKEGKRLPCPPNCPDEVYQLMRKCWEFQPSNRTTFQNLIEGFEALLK

Results are given in words; binding and its absence hold for the method and conditions named. Binding seen in cells or lysates may run through a third protein. Here binding means that the protein was enriched with, or labelled near, the bait; the list need not be complete.

This assay addresses FLAG-tagged CNR2 (cannabinoid receptor 2) from Cnr2-2×Flag-IRES-Egfp^flox/flox knock-in mice (mouse) (UniProt P47936). As to the kind of experiment: affinity purification with mass spectrometry; lysate of sorted CD8+GFP+ T cells of Cnr2-2×Flag knock-in mice; anti-FLAG M2 affinity gel against mouse IgG beads, overnight at 4 °C; silver-stained bands found only in the FLAG group cut out, LC-MS/MS.

Take “JAK1 (from UniProt P52332 1-1153) (enzyme)”: the binding entry is given as “binds”.
